In PMC4555926:
These are yes or no findings as the source states them, for the method shown.

Biological target: SPRY domain of human DDX1, construct SPRY_72–283 (human) (UniProt Q92499)
Assay: dynamic light scattering; 25 µM (650 µg/ml) protein in storage buffer (10 mM HEPES-NaOH pH 8.0, 250 mM KCl, 5 mM MgCl2, 3 mM DTE); scattered light at 90°, hydrodynamic radius 2.8 nm; both purified

B1: SPRY domain of human DDX1, construct SPRY_72–283 (domain or fragment, UniProt Q92499 72-283)
chain: QEGKKGKTTIKTGASVLNKWQMNPYDRGSAFAIGSDGLCCQSREVKEWHGCRATKGLMKGKHYYEVSCHDQGLCRVGWSTMQASLDLGTDKFGFGFGGTGKKSHNKQFDNYGEEFTMHDTIGCYLDIDKGHVKFSKNGKDLGLAFEIPPHMKNQALFPACVLKNAELKFNFGEEEFKFPPKDGFVALSKAPDGYIVKSQHSGNAQVTQTKFL
- binding: no binding (tested: 25 µM)
